The supplement of paper PMC5949888
Most values lie at the floor of the assay. Slopes are relative: functional sequences can read slightly below zero.

These substances were tested on Saccharomyces cerevisiae PS128 hsf1 delta, HSF1(1-493) fusion (assay: growth estimate (transactivation domain function in HSF1 fusion, heat-shock survival) (a.u. (slope of normalised read count over time)); higher = stronger growth at 37°C, i.e. more transactivation activity). Details: library: random library.
Protocol: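 Random 60-nt DNA library encoding peptides of up to 20 aa, fused to the C-terminus of yeast HSF1 residues 1-493 (C-terminal TAD deleted) and expressed from the native HSF1 promoter on a CEN plasmid in hsf1-deleted S. cerevisiae PS128. Cells were selected at 37°C on -trp 5-FOA plates for 0, 2, 4, 6 and 8 days and amplicons were sequenced. Growth estimate is the slope of a robust linear fit of total-sum-normalised read counts (normalised to the first time point) over time, using at least 2 replicates. Sequences are classed functional (TAD activity) above a threshold of -0.13, set from stop-codon control sequences.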

Row | Substance | growth estimate
1 | RMLSDKLRKHPRTLREATTN | < -0.25
2 | ILV | < -0.25
3 | RTGIGCYESYNKTFGY | < -0.25
4 | LGC | < -0.25
5 | LET | < -0.25
6 | GLCRL | < -0.25
7 | WLRCLGHRQLDDRGNHLYPS | -0.245
8 | YRRSQEDW | < -0.25
9 | TVSIEERLGGPRPSLEWWHK | < -0.25
10 | RSHSVSSGLPHRFEFSMDGK | < -0.25
11 | HTSYKMVLVRWIPRRAYIRE | < -0.25
12 | KANFRCEYLYRQGSHCHSSW | < -0.25
13 | TSAW | -0.215
14 | HGPRRLALDVEYRGDLA | < -0.25
15 | VKNSSTTSGFGREPQSIQGR | < -0.25
16 | AYGNYSPGSGLAGATDSVAQ | < -0.25
17 | SLIESTSIQLRVACSGTVRA | < -0.25
18 | SKCGPSCRTGWVLMYARG | < -0.25
19 | EVARGRDKNW | < -0.25
20 | KKFHRQWLRPGTRGREQLSC | < -0.25
21 | QTVKITPECIPLYWINLGFT | < -0.25
22 | LLLIWTSPAILAFRFSLSET | < -0.25
23 | SVLGVTGSQCPRGDV | < -0.25
24 | CKRWREFVGHRTNRI | < -0.25

Row | Substance | growth estimate
25 | TIEGTLLGLYGDRRVKADPL | < -0.25
26 | LVAEVKWGATVTTSPPALNN | < -0.25
27 | GSRIHDIAWPSGFVASHHQK | < -0.25
28 | RYL | < -0.25
29 | LRPLRLEGMCAAWVTKGYIV | < -0.25
30 | SFFKGRRLKVPLVIRSWLLT | < -0.25
31 | WGLPSLECYLTPRSTTLAFR | < -0.25
32 | KLNSTLQIPFNITWPWNTST | < -0.25
33 | TYGDCSSLASGYCSVYDVVP | < -0.25
34 | RVLGRVITCSDSIGSHPGAS | < -0.25
35 | FCPENTS | < -0.25
36 | RHSGECYPSYTLLRTRLRER | < -0.25
37 | VKGQWLVTGGQHFNFLLS | < -0.25
38 | QTFVLPLSLVWGALHKSTTP | < -0.25
39 | AGRVAPFRGTRH | < -0.25
40 | CAT | < -0.25
41 | GASCRRGERFIPPLRGIVTC | < -0.25
42 | RTQALTGLVRQDRKIGREHL | < -0.25
43 | SIVPRFGYVPTVAHVVQLPD | < -0.25
44 | DVVITKYRVIF | < -0.25
45 | RPTVHQPGQGPHWLVLAVTY | < -0.25
46 | PSV | < -0.25
47 | VPSTA | < -0.25
48 | WDKAQLVISGVRRYVWGRPA | < -0.25

Row | Substance | growth estimate
49 | SVPVKVELTLRSNHDTGGIA | < -0.25
50 | IVR | < -0.25
51 | RQLCNSRGP | < -0.25
52 | EKLPTVWRAAPGRKT | -0.198
53 | RPKVT | < -0.25
54 | VNRANKCDLCGG | < -0.25
55 | WGFCWPSPLGSLWHNIRQEE | < -0.25
56 | LSIFTSRRGNIGPWALFEEK | < -0.25
57 | CWGQ | < -0.25
58 | VLGSRSLLVGGRE | < -0.25
59 | TFSRKSVGTA | < -0.25
60 | VLTPPWTAGANCEYYDAMLV | < -0.25
61 | GYSGRRPKSSNAS | < -0.25
62 | ARFT | < -0.25
63 | RGSFRSCPRRVSRLLLGAGP | < -0.25
64 | VWRLGSHKRARIGYHYAGPI | -0.201
65 | AVGPAPGHRGTGGEPYFSYG | < -0.25
66 | MHQVTLTKSHQHDCRYPL | < -0.25
67 | YELLKCVKRYQGSREMGALS | < -0.25
68 | RQGRMSNVFVGVVALFRDSA | < -0.25
69 | VNMTTSRCRPGPPRQGHEKA | < -0.25
70 | SLGATEHNTRRRSSSAKVY | < -0.25
71 | LLHAVRPIFVLHRTPLYAR | < -0.25
72 | YALLSPSVRVWKKLRLLTVL | < -0.25

Row | Substance | growth estimate
73 | RSARGDDVDSRV | < -0.25
74 | PLGPKFQLKQLP | < -0.25
75 | KCSIVSGRSVDLWWPYIG | < -0.25
76 | CAMEIAG | < -0.25
77 | ERESTYVG | < -0.25
78 | TYSWVIVRILFTRQIGTFRK | < -0.25
79 | DPGRMGNKRSYPYSALLRVV | < -0.25
80 | AENSTEQNVARPRITKVFFR | < -0.25
81 | IASDSDRTSH | < -0.25
82 | SQREILSLR | < -0.25
83 | ETWDLLRSNFGPCADEGCKS | < -0.25
84 | KMDVGIFSPGHTHRPFGYTT | < -0.25
85 | MSPSLSVKKATYTAAYWSIP | < -0.25
86 | ARFPLPVNRIGGRGP | -0.129
87 | PCSQVGLLTYLFHRERTSTD | < -0.25
88 | TGIVEIGVQYGWLFGSRL | < -0.25
89 | TWFPLFSLSLDDVPSHGIKR | < -0.25
90 | SVLVIRGSSMVLVLRVLRLV | < -0.25
91 | SIVGVKIR | < -0.25
92 | ACPGTLAVPQPGFKG | < -0.25
93 | ICRIILKS | < -0.25
94 | GCFLNPLFIYVLVYIHPMPQ | < -0.25
95 | SRFQFLHFPIV | < -0.25
96 | WALHWSNCKLKVLYPVDKGH | < -0.25

Row | Substance | growth estimate
97 | VSVLASYSSSRSPRLGWCVP | < -0.25
98 | VSQFLWVAGLRHATAAPARP | < -0.25
99 | SETHLLHRDSSLGRVSSIRV | < -0.25
100 | RFLWNIYSNGPLRVTLSVTG | < -0.25
101 | RTRDELRRPKRPGSRGLAGL | < -0.25
102 | DGLSYIEGK | < -0.25
103 | SVTEKAMQRQL | < -0.25
104 | KCLH | < -0.25
105 | DAQCNKDERRGYAVVVQIGR | < -0.25
106 | RRSNILQPRIQRPYLHRKRR | < -0.25
107 | PHFVN | < -0.25
108 | GVGVPSATGSL | < -0.25
109 | DQFQGFDKARLSTINLYGIL | < -0.25
110 | NHSKQRAPKTRRM | < -0.25
111 | RRGQW | < -0.253
112 | LCRKPMKCKGNLKNCRYSLW | < -0.25
113 | AKRFGRRRPVMKSQLITA | < -0.25
114 | VWTGSVVQILTHAAYWSLKL | < -0.25
115 | VISWVMKNLDPETTNGLAFG | < -0.25
116 | YCPRI | -0.17
117 | TESDFCSRTAVVYIGSNSSD | < -0.25
118 | SRIFHGFHYRTSLARAFY | < -0.25
119 | VNNGAWNRSPFLLQSGSSPL | < -0.25
120 | AFTLSGNRGESWQFQWCIDT | < -0.25

Copied from the list.
In growth estimate, DGLSYIEGK shows < -0.25
In growth estimate, SRIFHGFHYRTSLARAFY shows < -0.25
In growth estimate, DAQCNKDERRGYAVVVQIGR shows < -0.25

Remaining list, next part.

Row | Substance | growth estimate
121 | EKR | < -0.25
122 | GDMLPSKRGMFGGGVDYGFS | < -0.25
123 | HVERLL | < -0.25
124 | GLTCTYTGMS | < -0.25
125 | SAVTLLESRNLERCDMTRPL | < -0.25
126 | RTC | < -0.25
127 | LVNMWSNWLAGL | 0.131
128 | DHGFSYPNVRI | < -0.25
129 | FFAIVSARWSLRRFPNPL | < -0.25
130 | PFDRLT | < -0.25
131 | QRRLCDHMVALRAGIRSNSY | < -0.25
132 | VPT | < -0.25
133 | IAGHKKG | < -0.25
134 | SWSQP | < -0.25
135 | RWATAESRLVL | < -0.25
136 | SRWPGSECGLLSGGVAFLSL | < -0.25
137 | RFKCLVLGRKAGQLYSCAET | < -0.25
138 | FECSEYKWLSPSVCPDVSGG | < -0.25
139 | GHVRMILITARKDTICSHPT | < -0.25
140 | CDSPATAGVSLAVLQIKTSK | < -0.25
141 | DTRTNEC | -0.243
142 | VRVHVAFERVSATSSATGEY | < -0.25
143 | RCRYLEASHRLEIKAASQIQ | < -0.25
144 | AQESGRKDLLVWKVDGLKQP | < -0.25

Row | Substance | growth estimate
145 | QWQSGAGGSSSNIQEAGLTT | < -0.25
146 | LRGKILKYHVKICSKCQVPY | < -0.25
147 | LKKLSTAFLTGRQ | < -0.25
148 | YPRWYLEILTRWLFAVRTPV | < -0.25
149 | VRTLRGGKNGPIRDGNSG | < -0.25
150 | THDLTRKDSQEAF | < -0.25
151 | HGVVTTNNMFSYTSG | < -0.25
152 | IERWGRAASRW | < -0.25
153 | TRELGRLRAG | < -0.25
154 | LFASCARGP | < -0.25
155 | GGRDVETMKTSEQAHVRPR | < -0.25
156 | DKGMLDTHLGRGCRAREMRK | < -0.25
157 | VGFVRMSQFWTVVPNVLTCN | < -0.25
158 | RNTVVGVLLSVQVNPPELLL | < -0.25
159 | SWKEDRPSFFWVGFSWVDGV | < -0.25
160 | PVGIFSFWINNQKHLRQGFA | < -0.25
161 | PYLSFTGVCQSVGVEARRSG | < -0.25
162 | RDVVDLVTTSTGRISRVSDW | < -0.25
163 | DLFVAHPLYPGLD | -0.162
164 | AGVAYQRLNTGLPRPIRHRP | < -0.25
165 | VVKRLEG | < -0.25
166 | IGTQ | < -0.25
167 | TLCQLPMNSVWVDPARNSLV | < -0.25
168 | PMKKNRC | < -0.25

Quoted at random: 2 records from the list.
Row | Substance | growth estimate
159 | SWKEDRPSFFWVGFSWVDGV | < -0.25
158 | RNTVVGVLLSVQVNPPELLL | < -0.25

More records

Row | Substance | growth estimate
169 | FRA | < -0.25
170 | VCRDYSTVCFGWTFAK | < -0.25
171 | EHCHHPLRFADD | < -0.25
172 | KCCIGVRMP | -0.231
173 | TSRYVCFDDPVGFR | < -0.25
174 | AYRGESMVVVSEWHAACTPG | < -0.25
175 | GYGKDSTYVPDEPRGSILGH | < -0.25
176 | PRRTSKEWVTISRLSISPNV | < -0.25
177 | LRSLKVLLYRGETRGPGLAP | < -0.25
178 | AREFASNRIQGE | -0.217
179 | AQSSAQCCTGRDSLIPGDRL | < -0.25
180 | NRLG | < -0.25
181 | GQDVSRRLTVL | < -0.25
182 | RGRFSAVWTVVTEGSNLSRL | < -0.25
183 | TPRKADPREVQPIQINQPNT | < -0.25
184 | EQGFAASMDPCRSYRDIAFH | < -0.25
185 | LDSEFCVRVTYDEQLV | < -0.25
186 | RVQIQRVDALVIVCWLRWGG | < -0.25
187 | EGGSTKLLQESRFAIGSLRS | < -0.25
